Test results taken from PubChem BioAssay AID2685 (National Center for Advancing Translational Sciences (NCATS), 2010).
The list shows a part of the results. The main result of the screen is listed elsewhere. These columns were measured beside it and carry no call. The list favours compounds with an active or inconclusive main result. Words in brackets tell the shape of the fitted curve; partial curves, single points and poor fits give uncertain potencies.

Assay: qHTS Assay for Lipid Storage Modulators in Drosophila S3 Cells;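 on cell number change: cells counted by Cell Tracker Red CMTPX staining in the red channel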
Settings: BODIPY lipid droplet fluorescence, 18-24 h; for cell number change: measured here: cell count max response, cells fed with added oleic acid
Outline: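 Laser-scanning cytometry quantifies lipid droplet accumulation (500–530 nm total intensity; droplet/cell object ratio) in oleic acid-fed (400 uM added) Drosophila S3 cells treated with a concentration series. 20 uM Triacsin C defined 100% inhibition.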

[1] = measured here: cell number channel AC50, cells fed with added oleic acid
[2] = measured here: lipid fluorescence (Fed channel) AC50, cells fed with added oleic acid

Q: Which results are given for `CC(C)C(=O)N1CCN(c2ccc(NC(=O)c3ccc([N+](=O)[O-])o3)cc2)CC1`?
A: cell number change: -32.5%; AC50 [1]: 16.4 µM [falling, single point]; AC50 [2]: 9.2 µM [falling, partial curve, poor fit]

Q: For `c1ccc2c(CCNc3ncnc4nc[nH]c34)cccc2c1`, which cell number change is on record?
A: -23.3%

Q: And the AC50 [2]?
A: 29.1 µM [falling, single point]

Q: Which cell number change does the source give for `Cc1ccc(-n2c(SCC(=O)c3c(N)n(C4CC4)c(=O)[nH]c3=O)nnc2N2CCOCC2)cc1` here?
A: -31.7%

Q: Which cell number change does the source give for `O=c1[nH]c(CN2CCN(c3ccccc3Cl)CC2)nc2ccsc12` here?
A: 36%

Q: And the AC50 [1]?
A: 29.1 µM [rising, single point]

Q: And the AC50 [2]?
A: 29.1 µM [rising, single point]

Q: With `Cn1nnc2cc(C(=O)NCc3ccc4c(c3)OCO4)ccc21` as the compound, how does the cell number change read?
A: 13.3%

Q: What about the AC50 [2] of the same compound?
A: 3.66 µM [rising, full curve]

Q: For `O=C(Nc1ccc(S(=O)(=O)N2CCOCC2)cc1)c1ccc([N+](=O)[O-])o1`, which cell number change is on record?
A: -43.8%

Q: And the AC50 [2]?
A: 29.1 µM [falling, partial curve, poor fit]

Q: With `Cc1ccccc1NC(=O)Cn1cccc1` as the compound, how does the cell number change read?
A: -33.7%

Q: And the AC50 [2]?
A: 14.6 µM [rising, single point]

Q: For `COc1ccc2nc(C)cc(Nc3cccc(C(=O)O)c3)c2c1`, which cell number change is on record?
A: 9.12%

Q: What about the AC50 [2] of the same compound?
A: 20.6 µM [rising, single point]

Q: Which cell number change does the source give for `Cc1cccc2sc(N(CCCN(C)C)C(=O)CCS(=O)(=O)c3ccccc3)nc12` here?
A: -10.1%

Q: And the AC50 [2]?
A: 0.461 µM [rising, partial curve]

Q: Which cell number change does the source give for `Cc1nc(N2CCN(Cc3ccc4c(c3)OCO4)CC2)[nH]c(=O)c1C` here?
A: -20.8%

Q: And the AC50 [2]?
A: 29.1 µM [falling, single point]

Q: With `COc1ccc(-n2cc(C#N)c(=O)n(Cc3ccc(F)cc3)c2=O)cc1` as the compound, how does the cell number change read?
A: 17.2%

Q: For `CN(C)S(=O)(=O)c1ccc(N2CCCC2)c(C(=O)NNC(=O)c2ccccc2)c1`, which cell number change is on record?
A: 36.8%

Q: What about the AC50 [1] of the same compound?
A: 18.4 µM [rising, partial curve, poor fit]

Q: What about the AC50 [2] of the same compound?
A: 13 µM [rising, partial curve, poor fit]

Q: With `Cc1cc(C)n2nc(SCC(=O)N/N=C/c3cccc(Br)c3)nc2n1` as the compound, how does the cell number change read?
A: -18.9%

Q: What about the AC50 [2] of the same compound?
A: 0.651 µM [rising, full curve]

Q: What does the source list for `Cc1noc(C)c1CCC(=O)Nc1c(C(C)C)cccc1C(C)C`?
A: cell number change: -12.8%; AC50 [1]: 3.26 µM [falling, single point]; AC50 [2]: 2.31 µM [falling, single point]

Q: What does the source list for `Cc1ccccc1-c1nn2c(-c3ccccc3)nnc2s1`?
A: cell number change: -29.5%; AC50 [2]: 0.461 µM [falling, full curve, poor fit]

Q: Which cell number change does the source give for `Cc1cccc(NC2=NC(C)(C)N=C(N)N2)c1C` here?
A: 13.1%

Q: With `COc1ccc(C(=O)/C=C2/Sc3cc4c(cc3N2C)OCO4)cc1` as the compound, how does the cell number change read?
A: 19.3%

Q: And the AC50 [2]?
A: 18.4 µM [rising, single point]

Q: With `CCCc1cc(=O)[nH]c(Nc2ccc(N3CCCCC3)cc2)n1` as the compound, how does the cell number change read?
A: -43.3%

Q: With `CCC(OC(=O)c1cccs1)C(=O)NCc1ccc2c(c1)OCO2` (centres undefined) as the compound, how does the AC50 [2] read?
A: 0.58 µM [rising, single point]

Q: What does the source list for `C=C(C)C1CC=C(C)/C(=N/Nc2ccccc2[N+](=O)[O-])C1` (centres undefined)?
A: cell number change: -53.8%; AC50 [1]: 3.26 µM [falling, full curve]; AC50 [2]: 2.59 µM [falling, full curve]

Q: Which results are given for `Cc1ccc(S(=O)(=O)/N=C(/Sc2ccccc2C(=O)O)c2ccccc2)cc1`?
A: cell number change: 36.6%; AC50 [1]: 2.91 µM [rising, full curve]; AC50 [2]: 20.6 µM [rising, partial curve]

Q: Which cell number change does the source give for `COCCCn1cnnc1SCc1nc2sc(C(C)=O)c(C)c2c(=O)[nH]1` here?
A: -6.49%

Q: And the AC50 [2]?
A: 0.731 µM [falling, full curve, poor fit]

Q: Which cell number change does the source give for `CC1=C/C(=N\OS(=O)(=O)c2ccccc2)C(C(C)C)=CC1=O` here?
A: -91.2%

Q: What about the AC50 [1] of the same compound?
A: 2.06 µM [falling, full curve]

Q: And the AC50 [2]?
A: 4.61 µM [falling, full curve]

Q: With `CC(C)(C)c1nnc2sc(SC/C(O)=C(\C#N)c3nc4ccccc4[nH]3)nn2c1=O` as the compound, how does the cell number change read?
A: -23.8%

Q: What about the AC50 [2] of the same compound?
A: 0.58 µM [rising, single point]

Q: With `CCOc1cc(/C=N/O)cc(Br)c1OCc1ccc(Cl)cc1` as the compound, how does the cell number change read?
A: -44.2%

Q: And the AC50 [1]?
A: 9.2 µM [falling, partial curve, poor fit]

Q: And the AC50 [2]?
A: 29.1 µM [falling, single point]

Q: With `COc1ccc(NC(=O)CSCC(=O)OCc2cccc(OC)c2OC)cc1` as the compound, how does the AC50 [2] read?
A: 1.64 µM [rising, partial curve, poor fit]

Q: For `CCOC(=O)C1=C(CSc2nc3c(cc2C#N)CN(C)CC3)OC(N)=C(C#N)C1c1ccc(F)cc1` (centres undefined), which cell number change is on record?
A: -0.161%

Q: What does the source list for `CC1=NN(c2ccccc2C(=O)O)C(=O)C1N=Nc1ccccc1` (centres undefined)?
A: cell number change: -7.25%; AC50 [2]: 32.6 µM [falling, single point]

Q: Which cell number change does the source give for `O=C(Nc1nc(-c2ccc(Cl)cc2Cl)cs1)c1ccc(OCC2CCCO2)cc1` (centres undefined) here?
A: -5.41%

Q: What about the AC50 [2] of the same compound?
A: 0.164 µM [rising, full curve, poor fit]

Q: With `O=C(NCc1ccccc1)c1ccc2c(=O)[nH]c3c(C(=O)NCC4CCCO4)sc(=S)n3c2c1` (centres undefined) as the compound, how does the cell number change read?
A: 22.4%

Q: What about the AC50 [1] of the same compound?
A: 2.31 µM [rising, full curve, poor fit]

Q: What about the AC50 [2] of the same compound?
A: 3.26 µM [rising, single point]

Q: Which AC50 [2] does the source give for `COc1ccc(C2(O)CC3CCC(C2)N3c2nc(C)cc(C)c2C#N)cc1` (centres undefined) here?
A: 0.58 µM [falling, single point]

Q: Which cell number change does the source give for `COc1ccc(CCNC(=O)c2ccc(=O)[nH]n2)cc1OC` here?
A: 5.37%

Q: Which results are given for `Cc1c(NC(=O)Nc2cccc([N+](=O)[O-])c2)c(=O)n(-c2ccccc2)n1C`?
A: cell number change: 1.45%; AC50 [2]: 29.1 µM [rising, single point]

Q: Which cell number change does the source give for `Cc1cccc2nc3ccccc3nc12` here?
A: -3.52%

Q: And the AC50 [2]?
A: 20.6 µM [rising, single point]

Q: Which cell number change does the source give for `CCCCN(CCCC)CCNC(=O)CN1C(=O)CSc2ccc(S(=O)(=O)N3CCOCC3)cc21` here?
A: -16.5%

Q: What about the AC50 [2] of the same compound?
A: 0.00461 µM [falling, full curve, poor fit]

Q: What does the source list for `CN(Cc1ccccc1)C(=O)CC(=O)N(C)Cc1ccccc1`?
A: cell number change: 9.4%; AC50 [2]: 4.61 µM [falling, full curve, poor fit]

Q: Which cell number change does the source give for `CCn1c(C(=O)N2CCc3ccccc3C2)cc2sccc21` here?
A: 42%

Q: What about the AC50 [1] of the same compound?
A: 11.6 µM [rising, partial curve, poor fit]
